The record followed here is publication PMC12645055.

By UniProt entry, the sequences of proteins in these tests, tags left out.
UniProt P50552: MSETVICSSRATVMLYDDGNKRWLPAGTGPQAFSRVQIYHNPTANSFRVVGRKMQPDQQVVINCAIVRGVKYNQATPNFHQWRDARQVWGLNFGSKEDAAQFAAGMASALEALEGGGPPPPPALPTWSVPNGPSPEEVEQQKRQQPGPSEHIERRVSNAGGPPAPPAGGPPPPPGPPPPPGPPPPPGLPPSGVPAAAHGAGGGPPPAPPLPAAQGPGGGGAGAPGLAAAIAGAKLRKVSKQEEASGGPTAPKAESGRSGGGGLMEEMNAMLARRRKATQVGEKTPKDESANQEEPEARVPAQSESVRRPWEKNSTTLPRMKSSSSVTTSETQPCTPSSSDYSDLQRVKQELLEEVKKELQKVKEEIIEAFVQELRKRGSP

The assay deals with T1, FLAG-EMP1 (UniProt P54849).
T1 sequence: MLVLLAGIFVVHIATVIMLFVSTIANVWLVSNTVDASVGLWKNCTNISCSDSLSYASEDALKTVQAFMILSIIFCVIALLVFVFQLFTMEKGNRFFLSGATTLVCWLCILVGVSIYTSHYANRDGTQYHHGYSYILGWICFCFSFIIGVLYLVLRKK
The experiment in a line: affinity purification with mass spectrometry; AsPC-1 overexpressing FLAG-EMP1; protein purified by anti-FLAG antibody, silver-stained SDS-PAGE, differing gel regions excised and analysed by LC-MS/MS; IgG as control.

Results are given in words; binding and its absence hold for the method and conditions named. Binding seen in cells or lysates may run through a third protein. Here binding means that the protein was enriched with, or labelled near, the bait; the list need not be complete. Where a sequence is shown, tags or fusion partners need not be part of it.

Regarding VASP (from UniProt P50552 1-380), the binding result was “binds”.
